Experimental findings from patent publication US20250283871A1, “COMPOSITIONS AND METHODS FOR MODULATING THE INTERACTION BETWEEN SS18-SSX FUSION ONCOPROTEIN AND NUCLEOSOMES” (Dana-Farber Cancer Institute, Inc., priority 2020, published 2025) are described below.

The test system of this data set is BAF complex subunits and histone proteins. Briefly: Mass spectrometry proteomics of purified HA-SS18 WT and HA-SS18-SSX1 complexes (Tables 5A-5E). Also noted: species or system human. The conditions noted are these: for Total / Unique: HA-SS18SSX1_CHR_peptides; for Total: total peptides of the identified protein; for Unique: unique peptides of the identified protein.

Where [1] appears, read: HA-SS18SSX1_NE_peptides: protein co-purified with HA-SS18-SSX1 BAF complexes from soluble nuclear extract (NE), HEK-293T cells.
Setting [2] is: HA-SS18WT_CHR_peptides: protein identified in HA-SS18 WT BAF complex purification from nuclease-treated solubilized chromatin (CHR), HEK-293T.
The mark [3] stands for this setting: HA-SS18WT_NE_peptides: proteins co-purified with HA-SS18 WT from nuclear extract (NE), HEK-293T.
The mark [4] stands for this setting: HA-SS18SSX1_CHR_peptides: protein identified in the HA-SS18-SSX1 purification from solubilized chromatin (CHR), HEK-293T.
Setting [5] is: HA-SS18SSX1 purification, NE (soluble nuclear extract) fraction, HEK-293T, peptides per identified protein.
The mark [6] stands for this setting: HA-SS18WT_CHR_peptides: HA-SS18 WT purification from nuclease-treated solubilized chromatin (CHR), HEK-293T, label = protein identified.
Setting [7] is: HA-SS18WT_NE_peptides: HA-SS18 WT complexes purified from nuclear extract (NE), HEK-293T, label = protein identified (Gene Symbol).

B1: HELLS (protein, UniProt Q9NRZ9 1-838, looked up)
Lymphoid-specific helicase: MPAERPAGSGGSEAPAMVEQLDTAVITPAMLEEEEQLEAAGLERERKMLEKARMSWDRESTEIRYRRLQHLLEKSNIYSKFLLTKMEQQQLEEQKKKEKLERKKESLKVKKGKNSIDASEEKPVMRKKRGREDESYNISEVMSKEEILSVAKKNKKENEDENSSSTNLCVEDLQKNKDSNSIIKDRLSETVRQNTKFFFDPVRKCNGQPVPFQQPKHFTGGVMRWYQVEGMEWLRMLWENGINGILADEMGLGKTVQCIATIALMIQRGVPGPFLVCGPLSTLPNWMAEFKRFTPDIPTMLYHGTQEERQKLVRNIYKRKGTLQIHPVVITSFEIAMRDRNALQHCYWKYLIVDEGHRIKNMKCRLIRELKRFNADNKLLLTGTPLQNNLSELWSLLNFLLPDVFDDLKSFESWFDITSLSETAEDIIAKEREQNVLHMLHQILTPFLLRRLKSDVALEVPPKREVVVYAPLSKKQEIFYTAIVNRTIANMFGSSEKETIELSPTGRPKRRTRKSINYSKIDDFPNELEKLISQIQPEVDRERAVVEVNIPVESEVNLKLQNIMMLLRKCCNHPYLIEYPIDPVTQEFKIDEELVTNSGKFLILDRMLPELKKRGHKVLLFSQMTSMLDILMDYCHLRDFNFSRLDGSMSYSEREKNMHSFNTDPEVFIFLVSTRAGGLGINLTAADTVIIYDSDWNPQSDLQAQDRCHRIGQTKPVVVYRLVTANTIDQKIVERAAAKRKLEKLIIHKNHFKGGQSGLNLSKNFLDPKELMELLKSRDYEREIKGSREKVISDKDLELLLDRSDLIDQMNASGPIKEKMGIFKILENSEDSSPECLF
With B1, the Total came out at 3 and the Unique was 3. Further, under setting [1], the “Total (peptides)” value was determined as 2 and the “Unique (peptides)” value was found to be 2. Moreover, under setting [2], the “Total (total peptides)” value is recorded as 1 and the “Unique (unique peptides)” value was 1. For the same molecule, under setting [3], the “Total (peptides)” value is 2 and the “Unique (peptides)” value was 2.

B2: HNRNPM (protein, UniProt P52272 2-730, looked up)
Heterogeneous nuclear …: AAGVEAAAEVAATEIKMEEESGAPGVPSGNGAPGPKGEGERPAQNEKRKEKNIKRGGNRFEPYANPTKRYRAFITNIPFDVKWQSLKDLVKEKVGEVTYVELLMDAEGKSRGCAVVEFKMEESMKKAAEVLNKHSLSGRPLKVKEDPDGEHARRAMQKVMATTGGMGMGPGGPGMITIPPSILNNPNIPNEIIHALQAGRLGSTVFVANLDYKVGWKKLKEVFSMAGVVVRADILEDKDGKSRGIGTVTFEQSIEAVQAISMFNGQLLFDRPMHVKMDERALPKGDFFPPERPQQLPHGLGGIGMGLGPGGQPIDANHLNKGIGMGNIGPAGMGMEGIGFGINKMGGMEGPFGGGMENMGRFGSGMNMGRINEILSNALKRGEIIAKQGGGGGGGSVPGIERMGPGIDRLGGAGMERMGAGLGHGMDRVGSEIERMGLVMDRMGSVERMGSGIERMGPLGLDHMASSIERMGQTMERIGSGVERMGAGMGFGLERMAAPIDRVGQTIERMGSGVERMGPAIERMGLSMERMVPAGMGAGLERMGPVMDRMATGLERMGANNLERMGLERMGANSLERMGLERMGANSLERMGPAMGPALGAGIERMGLAMGGGGGASFDRAIEMERGNFGGSFAGSFGGAGGHAPGVARKACQIFVRNLPFDFTWKMLKDKFNECGHVLYADIKMENGKSKGCGVVKFESPEVAERACRMMNGMKLSGREIDVRIDRNA
As to B2, under setting [4], the “Total (total peptides)” value was 38 and the “Unique (unique peptides)” value was 24. Under setting [5], the “Total (total peptides)” value was determined as 30 and the “Unique (unique peptides)” value was found to be 15. Under setting [6], the “Total (peptides)” value came out at 27 and the “Unique (peptides)” value is on record as 15. Under setting [7], the “Total (peptides)” value was 29 and the “Unique (peptides)” value came to 20.

B3: SRSF12 (protein, UniProt Q8WXF0 1-261, looked up)
Serine/arginine-rich splicing …: MSRYTRPPNTSLFIRNVADATRPEDLRREFGRYGPIVDVYIPLDFYTRRPRGFAYVQFEDVRDAEDALYNLNRKWVCGRQIEIQFAQGDRKTPGQMKSKERHPCSPSDHRRSRSPSQRRTRSRSSSWGRNRRRSDSLKESRHRRFSYSQSKSRSKSLPRRSTSARQSRTPRRNFGSRGRSRSKSLQKRSKSIGKSQSSSPQKQTSSGTKSRSHGRHSDSIARSPCKSPKGYTNSETKVQTAKHSHFRSHSRSRSYRHKNSW
B3 displayed a Total of 3 and a Unique of 3. Under setting [2], the “Total (total peptides)” value turned out to be 2 and the “Unique (unique peptides)” value was 2.

B4: TCOF1 (protein, UniProt Q13428 1-1488, looked up)
Treacle protein: MAEARKRRELLPLIYHHLLRAGYVRAAREVKEQSGQKCFLAQPVTLLDIYTHWQQTSELGRKRKAEEDAALQAKKTRVSDPISTSESSEEEEEAEAETAKATPRLASTNSSVLGADLPSSMKEKAKAETEKAGKTGNSMPHPATGKTVANLLSGKSPRKSAEPSANTTLVSETEEEGSVPAFGAAAKPGMVSAGQADSSSEDTSSSSDETDVEGKPSVKPAQVKASSVSTKESPARKAAPAPGKVGDVTPQVKGGALPPAKRAKKPEEESESSEEGSESEEEAPAGTRSQVKASEKILQVRAASAPAKGTPGKGATPAPPGKAGAVASQTKAGKPEEDSESSSEESSDSEEETPAAKALLQAKASGKTSQVGAASAPAKESPRKGAAPAPPGKTGPAVAKAQAGKREEDSQSSSEESDSEEEAPAQAKPSGKAPQVRAASAPAKESPRKGAAPAPPRKTGPAAAQVQVGKQEEDSRSSSEESDSDREALAAMNAAQVKPLGKSPQVKPASTMGMGPLGKGAGPVPPGKVGPATPSAQVGKWEEDSESSSEESSDSSDGEVPTAVAPAQEKSLGNILQAKPTSSPAKGPPQKAGPVAVQVKAEKPMDNSESSEESSDSADSEEAPAAMTAAQAKPALKIPQTKACPKKTNTTASAKVAPVRVGTQAPRKAGTATSPAGSSPAVAGGTQRPAEDSSSSEESDSEEEKTGLAVTVGQAKSVGKGLQVKAASVPVKGSLGQGTAPVLPGKTGPTVTQVKAEKQEDSESSEEESDSEEAAASPAQVKTSVKKTQAKANPAAARAPSAKGTISAPGKVVTAAAQAKQRSPSKVKPPVRNPQNSTVLARGPASVPSVGKAVATAAQAQTGPEEDSGSSEEESDSEEEAETLAQVKPSGKTHQIRAALAPAKESPRKGAAPTPPGKTGPSAAQAGKQDDSGSSSEESDSDGEAPAAVTSAQVIKPPLIFVDPNRSPAGPAATPAQAQAASTPRKARASESTARSSSSESEDEDVIPATQCLTPGIRTNVVTMPTAHPRIAPKASMAGASSSKESSRISDGKKQEGPATQVSKKNPASLPLTQAALKVLAQKASEAQPPVARTQPSSGVDSAVGTLPATSPQSTSVQAKGTNKLRKPKLPEVQQATKAPESSDDSEDSSDSSSGSEEDGEGPQGAKSAHTLGPTPSRTETLVEETAAESSEDDVVAPSQSLLSGYMTPGLTPANSQASKATPKLDSSPSVSSTLAAKDDPDGKQEAKPQQAAGMLSPKTGGKEAASGTTPQKSRKPKKGAGNPQASTLALQSNITQCLLGQPWPLNEAQVQASVVKVLTELLEQERKKVVDTTKESSRKGWESRKRKLSGDQPAARTPRSKKKKKLGAGEGGEASVSPEKTSTTSKGKAKRDKASGDVKEKKGKGSLGSQGAKDEPEEELQKGMGTVEGGDQSNPKSKKEKKKSDKRKKDKEKKEKKKKAKKASTKDSESPSQKKKKKKKKTAEQTV
B4: the Total is 3 and the Unique amounted to 3. Moreover, under setting [1], the “Total (peptides)” value is 2 and the “Unique (peptides)” value came out at 2.

B5: RNF2 (protein, UniProt Q99496 2-336, looked up)
E3 ubiquitin-protein ligase …: SQAVQTNGTQPLSKTWELSLYELQRTPQEAITDGLEIVVSPRSLHSELMCPICLDMLKNTMTTKECLHRFCADCIITALRSGNKECPTCRKKLVSKRSLRPDPNFDALISKIYPSRDEYEAHQERVLARINKHNNQQALSHSIEEGLKIQAMNRLQRGKKQQIENGSGAEDNGDSSHCSNASTHSNQEAGPSNKRTKTSDDSGLELDNNNAAMAIDPVMDGASEIELVFRPHPTLMEKDDSAQTRYIKTSGNATVDHLSKYLAVRLALEELRSKGESNQMNLDTASEKQYTIYIATASGQFTVLNGSFSLELVSEKYWKVNKPMELYYAPTKEHK
In turn, B5 displayed a Total of 3 and a Unique of 3.

B6: ESF1 (protein, UniProt Q9H501 2-851, looked up)
ESF1 homolog: SSKQEIMSDQRFRRVAKDPRFWEMPEKDRKVKIDKRFRAMFHDKKFKLNYAVDKRGRPISHSTTEDLKRFYDLSDSDSNLSGEDSKALSQKKIKKKKTQTKKEIDSKNLVEKKKETKKANHKGSENKTDLDNSIGIKKMKTSCKFKIDSNISPKKDSKEFTQKNKKEKKNIVQHTTDSSLEEKQRTLDSGTSEIVKSPRIECSKTRREMQSVVQLIMTRDSDGYENSTDGEMCDKDALEEDSESVSEIGSDEESENEITSVGRASGDDDGSEDDEEEDEDEEEDEDEDSEDDDKSDSGPDLARGKGNIETSSEDEDDTADLFPEESGFEHAWRELDKDAPRADEITRRLAVCNMDWDRLKAKDLLALFNSFKPKGGVIFSVKIYPSEFGKERMKEEQVQGPVELLSIPEDAPEKDWTSREKLRDYQFKRLKYYYAVVDCDSPETASKIYEDCDGLEFESSCSFIDLRFIPDDITFDDEPKDVASEVNLTAYKPKYFTSAAMGTSTVEITWDETDHERITMLNRKFKKEELLDMDFQAYLASSSEDEEEIEEELQGDDGVNVEEDGKTKKSQKDDEEQIAKYRQLLQVIQEKEKKGKENDMEMEIKWVPGLKESAEEMVKNKLEGKDKLTPWEQFLEKKKEKKRLKRKQKALAEEASEEELPSDVDLNDPYFAEEVKQIGINKKSVKSAKDGTSPEEEIEIERQKAEMALLMMDEDEDSKKHFNYNKIVEHQNLSKKKKKQLMKKKELIEDDFEVNVNDARFQAMYTSHLFNLDPSDPNFKKTKAMEKILEEKARQRERKEQELTQAIKKKESEIEKESQRKSIDPALSMLIKSIKTKTEQFQARKKQKVK
B6 yielded a Total of 3 and a Unique of 3. For the same molecule, under setting [6], the “Total (peptides)” value was determined as 4 and the “Unique (peptides)” value was found to be 3.
